Source: PubChem BioAssay AID2685 (National Center for Advancing Translational Sciences (NCATS), 2010)
This is one part of the list. Further columns of the screen follow, without active or inactive calls. Most of these compounds were active or inconclusive in the main read-out, so they are no random draw. Potencies come from curve fits of mixed quality, noted in brackets.

Experiment: qHTS Assay for Lipid Storage Modulators in Drosophila S3 Cells;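 on cell number change: cells counted by Cell Tracker Red CMTPX staining in the red channel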
Conditions: BODIPY lipid droplet fluorescence, 18-24 h; for cell number change: measured here: cell count max response, cells fed with added oleic acid
Procedure, shortened: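 Laser-scanning cytometry quantifies lipid droplet accumulation (500–530 nm total intensity; droplet/cell object ratio) in oleic acid-fed (400 uM added) Drosophila S3 cells treated with a concentration series. 20 uM Triacsin C defined 100% inhibition.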

[1] = measured here: cell number channel AC50, cells fed with added oleic acid
[2] = measured here: lipid fluorescence (Fed channel) AC50, cells fed with added oleic acid

Row | Structure (SMILES) | cell number change | AC50 [1] | AC50 [2]
1 | COc1cc(C(=O)N/C(=C\c2cn(C)c3ccccc23)C(=O)N2CCOCC2)cc(OC)c1OC | -55.2% | 29.1 µM [falling, single point] | 29.1 µM [falling, single point]
2 | O=C(Nc1ccccc1N1CCOCC1)c1ccc2ccccc2c1 | 0.84% | – | –
3 | CCCCNC(=O)CSc1ccc(S(=O)(=O)N2CCOCC2)cn1 | 14.3% | – | 0.517 µM [rising, single point]
4 | COc1ccc(-c2cc(=O)oc3cc(OCC(=O)c4cccc([N+](=O)[O-])c4)ccc23)cc1 | 8.04% | – | 23.1 µM [rising, partial curve]
5 | COC(=O)c1ccc(NC(=O)c2cc[n+](Cc3ccccc3)cc2)cc1 | 18.2% | – | 29.1 µM [rising, partial curve, poor fit]
6 | CCOC(=O)c1[nH]c2ccccc2c1NC(=O)c1nonc1C | – | – | 6.51 µM [falling, single point]
7 | COc1ccc(CC(=O)NCc2ccc3c(c2)cc(C)n3C)cc1 | 25.5% | – | 25.9 µM [rising, partial curve]
8 | Cc1ccc2c(c1)c1c(n2C)-c2[nH]ncc2CC1 | -45.7% | 32.6 µM [falling, single point] | 29.1 µM [falling, single point]
9 | CC(C)(C)OC(=O)NNc1c2ccccc2nc2ccccc12 | -15.9% | – | 6.51 µM [rising, single point]
10 | COC(=O)c1cc(Br)ccc1NC(=O)CCNC(=O)c1ccco1 | 6.52% | – | 29.1 µM [rising, single point]
11 | N#CC1(NC(=O)COC(=O)Cn2[nH]c(=O)c3ccccc3c2=O)CCCCC1 | 9.32% | – | 16.4 µM [falling, single point]
12 | CN(c1ncnc(N)c1[N+](=O)[O-])C1CCCCC1 | -7.58% | – | –
13 | COc1ccc(NC(C)=O)cc1S(=O)(=O)Nc1cccc(S(=O)(=O)NC2=NCCC2)c1 | -3.89% | – | 2.91 µM [rising, single point]
14 | CCOc1ccc(C(C)NC(=O)c2ccccc2OCc2c(C)noc2C)cc1OCC (stereo not given) | 8.18% | – | 18.4 µM [falling, single point]
15 | CC1CCN(CCCNC(=O)c2ccc3c(=O)n(Cc4ccc(Cl)cc4)c(=S)[nH]c3c2)CC1 | 13.7% | 2.06 µM [rising, partial curve] | –
16 | COc1ccc(NC(=O)c2cccc3c(Br)cccc23)cc1 | 1.04% | – | –
17 | O=C(CCc1ccccc1)Nc1ccc(F)c([N+](=O)[O-])c1 | 11.7% | 6.51 µM [falling, single point] | 6.51 µM [falling, single point]
18 | COc1ccc(NC(=O)CN2CCN(S(=O)(=O)c3ccc(F)cc3)CC2)cc1Cl | 25% | – | –
19 | N/C(=N\OC(=O)Cc1cccc2ccccc12)c1ccccn1 | 13.8% | – | –
20 | Cc1cc(N2CCN(C)CC2)nc2ccc(NC(=O)CCC(=O)N3CCN(c4ccc([N+](=O)[O-])cc4)CC3)cc12 | -24.6% | – | 4.11 µM [rising, single point]

Excerpt, compounds 10 to 11
Row | Structure (SMILES) | cell number change | AC50 [1] | AC50 [2]
10 | COC(=O)c1cc(Br)ccc1NC(=O)CCNC(=O)c1ccco1 | 6.52% | – | 29.1 µM [rising, single point]
11 | N#CC1(NC(=O)COC(=O)Cn2[nH]c(=O)c3ccccc3c2=O)CCCCC1 | 9.32% | – | 16.4 µM [falling, single point]

Following part

Row | Structure (SMILES) | cell number change | AC50 [1] | AC50 [2]
21 | O=C(CSc1nnc(-c2ccco2)o1)N1CCOCC1 | -11.6% | – | 29.1 µM [falling, single point]
22 | CC1Cc2ccccc2N1C(=O)CCNS(=O)(=O)c1ccc2c(c1)CCC(=O)N2 (stereo not given) | 47.4% | 4.61 µM [rising, full curve] | 0.00517 µM [rising, full curve, poor fit]
23 | N#Cc1c(SCc2ccccc2)nc(N2CCOCC2)c2c1CCCC2 | -10.1% | – | –
24 | CN(C)C1=NC(=O)/C(=C/c2ccc(-c3ccc(S(N)(=O)=O)cc3)o2)S1 | – | – | 0.58 µM [rising, single point]
25 | c1ccc(COc2ccc3nocc3c2)cc1 | 13.6% | – | 20.6 µM [rising, single point]
26 | CC(C)(C)c1ccc(OCc2ccc(C(=O)N/N=C3\CC4CC=CC34)cc2)cc1 (stereo not given) | -9.96% | – | 29.1 µM [falling, single point]
27 | CC1(C2CC2)NC(=O)N(CC(=O)Nc2ccc(C(F)(F)F)cc2)C1=O (stereo not given) | -21.1% | – | 4.11 µM [falling, full curve, poor fit]
28 | NNC(=O)CN1C(=O)Nc2ccc(Cl)cc2C1c1ccccc1 (stereo not given) | -7.8% | – | 0.116 µM [falling, full curve, poor fit]
29 | CCN(CC)CC(=O)NC12CC3CC(CC(C3)C1)C2 | -61.6% | 16.4 µM [falling, partial curve] | 29.1 µM [falling, single point]
30 | CCO/C=C1/C(=O)N(c2ccc(OC)cc2)C(=O)c2ccccc21 | – | – | 18.4 µM [falling, partial curve]
31 | COCCNc1nnc(Cc2ccccc2)c(=O)[nH]1 | -17.4% | – | –
32 | COc1ccc(CC(=O)NC(C)CCc2ccccc2)cc1 (stereo not given) | 20% | 0.0366 µM [rising, full curve, poor fit] | 0.00517 µM [rising, full curve, poor fit]
33 | O=C(CCNC(=O)c1ccccc1)NC1CCCc2ccccc21 (stereo not given) | -13% | – | –
34 | COc1ccccc1-c1cc(C(F)(F)F)nc(N2CCOCC2)n1 | -24.4% | – | –
35 | CCCCC(=O)N(Cc1ccc(-c2ccccc2-c2nn[nH]n2)cc1)[C@H](C(=O)O)C(C)C | 35.8% | 29.1 µM [rising, single point] | –
36 | O=C(COC(=O)c1cc(Cl)ccc1O)Nc1ccc2c(c1)OCCO2 | -0.688% | – | 11.6 µM [rising, partial curve, poor fit]
37 | CCn1c2ccccc2c2cc(NC(=O)C(C)OC(=O)c3ccc(NC(=O)CC#N)cc3)ccc21 (stereo not given) | -37.8% | 29.1 µM [falling, single point] | 0.0651 µM [rising, full curve, poor fit]
38 | O=C(CNC1=NCCC1)c1ccc2c(c1)OCCO2 | -0.98% | – | 0.13 µM [falling, full curve]
39 | Cc1ccc(/C(O)=C2\C(=O)C(=O)N(CC(C)O)C2c2cccc(F)c2)cc1 (stereo not given) | 23.2% | – | –
40 | O=C(CN1C2CCC1CC(NC(=O)NC1CCCCC1)C2)NC1CC1 (stereo not given) | -15.7% | 2.91 µM [falling, partial curve] | 3.26 µM [falling, partial curve, poor fit]

Row | Structure (SMILES) | cell number change | AC50 [1] | AC50 [2]
41 | O=c1[nH]cccc1-c1nc2ccccc2n1Cc1ccc(Cl)cc1 | 10% | – | 0.291 µM [rising, single point]
42 | COCCCn1c(C)c(C(C)=O)cc(NC(=O)c2ccccc2)c1=O | 22% | – | –
43 | O=C(/C=C/c1ccc([N+](=O)[O-])cc1)N1CCN(S(=O)(=O)c2cccs2)CC1 | -38.7% | 29.1 µM [falling, single point] | 29.1 µM [falling, single point]
44 | Cn1ccnc1SCC(=O)Nc1ccc([N+](=O)[O-])cn1 | 2.76% | – | 0.58 µM [falling, single point]
45 | CCCCOc1ccc(N(CC(=O)NC(C)(C)C)C(=O)CCC(=O)Nc2nccs2)cc1 | 10.4% | – | 0.461 µM [falling, single point]
46 | C(#Cc1ccccc1)C[N+]1(CC#Cc2cccc3ccccc23)CCCC1 | -59% | 32.6 µM [falling, single point] | 23.1 µM [falling, partial curve]
47 | CC1(C(=O)N2CCC(CC3CC(c4ccc(Cl)cc4)=NO3)(C(=O)NCC3CCCCC3)CC2)CC1 (stereo not given) | 23.6% | – | –
48 | S=C(Nc1ccc2c(c1)OCO2)Nc1ccc2c(c1)OCO2 | 9.62% | – | 25.9 µM [rising, partial curve, poor fit]
49 | COc1cc(/C=C/C(=O)O)cc(OC)c1OC | -36.5% | – | 0.116 µM [falling, full curve]
50 | Cc1ccc(C)c(N2CCN(c3nnnn3-c3ccccc3)CC2)c1 | 32.2% | 0.13 µM [rising, full curve] | 0.206 µM [rising, full curve]
51 | CC(C)c1ccc(OCC(=O)N2CCN(c3ccccn3)CC2)c(Br)c1 | -2.48% | – | 0.58 µM [rising, single point]
52 | CC(C)(C)OC(=O)CC[C@@H](C(=O)N1CCN(C(=O)OC(C)(C)C)CC1)n1cc(C(Cc2ccc(O)cc2)NC(=O)OC(C)(C)C)nn1 (stereo not given in full) | -13.3% | 0.731 µM [falling, partial curve, poor fit] | 0.82 µM [falling, full curve, poor fit]
53 | Cc1cc(NC(=O)CN2C(=O)NC(Cc3ccccc3)C2=O)no1 (stereo not given) | -67% | 25.9 µM [falling, single point] | –
54 | CCOc1ccc(OCC)c(NS(=O)(=O)c2cccc3nsnc23)c1 | -18.2% | – | 0.0259 µM [rising, full curve]
55 | CC1CC(C)(C)N(C(=O)NC2CCCCC2)c2ccccc21 (stereo not given) | 23.1% | – | 4.11 µM [rising, full curve, poor fit]
56 | CCC(C)c1ccccc1N1CC(C(=O)N2CCN(S(=O)(=O)c3cccc([N+](=O)[O-])c3)CC2)CC1=O (stereo not given) | -68% | 18.4 µM [falling, partial curve, poor fit] | –
57 | COc1ccc(C(CC(=O)O)NC(=O)COc2ccccc2)cc1OC (stereo not given) | 148% | 23.1 µM [rising, single point] | –
58 | Cc1cc(Cl)ccc1NC(=S)NCCc1ccc(Cl)cc1 | – | – | 4.11 µM [falling, full curve, poor fit]
59 | COc1ccc(CC(=O)Nc2cccc3ncccc23)cc1OC | 5.19% | 6.51 µM [rising, single point] | 6.51 µM [rising, single point]
